Values from PubChem BioAssay AID504795 (Drosophila RNAi Screening Center, 2011)
The reagents shown are a selection, not the whole library. 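Every listed dsRNA shows some phenotype; how reagents were selected for listing is not stated.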 Names joined by + are all predicted targets of the reagent.

Assay: 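Fly genes whose loss alters neurite growth or neural cell form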 (primary screen)
Cells: primary Drosophila neurons and glia
Knock-down reagent: long dsRNA against Drosophila genes, 250 ng dsRNA per well
Timing: one week
Read-out: 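Descriptive morphology terms assigned by visual inspection of live automated images of GFP-marked cells, taken one week after adding 250 ng dsRNA per well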

After knock-down of CG34281 (GeneID 50039) [DRSC14807], the record shows phenotype seen, replicate 1 = axon bundles split apart. Gdap2 (GeneID 59173) [DRSC06789] gave phenotype seen, replicate 1 = axon bundles split apart. After knock-down of Gdap2 (GeneID 59173) [DRSC06790] the results were phenotype seen, replicate 1 = axon bundles split apart. Against Spn77Bb + Spn77Bc [DRSC10689], the values are phenotype seen, replicate 1 = abnormal cell clusters. Spn77Bb + Spn77Bc [DRSC11793] showed phenotype seen, replicate 1 = axon bundles split apart. For Wnt2 (GeneID 35975) [DRSC07574], the entry reads phenotype seen, replicate 1 = beaded; swollen axons.

Knock-down of CG14671 (GeneID 40671) [DRSC12257] gave: phenotype seen, replicate 1 = abnormal cell clusters. After knock-down of RpL30 (GeneID 44059) [DRSC02087], the record shows phenotype seen, replicate 1 = too many neurite branches. After knock-down of sced (GeneID 35564) [DRSC04990], the screen gave phenotype seen, replicate 1 = too many neurite branches. After knock-down of CG7706 (GeneID 42244) [DRSC16295], the screen gave phenotype seen, replicate 1 = beaded; swollen axons. Against caps (GeneID 39493) [DRSC11333], the entry reads phenotype seen, replicate 1 = sheet-like cell extensions. Depletion of CG9287 (GeneID 34194) [DRSC03186] came out at: phenotype seen, replicate 1 = abnormal cell clusters.

CG10853 (GeneID 38465) [DRSC08164] showed phenotype seen, replicate 1 = too many neurite branches. After knock-down of Cpr62Bb (GeneID 38240) [DRSC08404] the results were phenotype seen, replicate 1 = too many neurite branches. For comr (GeneID 37492) [DRSC04138], the entry reads phenotype seen, replicate 1 = too many neurite branches. With knock-down of exp (GeneID 36276) [DRSC06313], the screen gave phenotype seen, replicate 1 = axon bundles split apart. raskol (GeneID 32754) [DRSC19967] scored phenotype seen, replicate 1 = beaded; swollen axons. With knock-down of gukh (GeneID 53563) [DRSC14768], the screen gave phenotype seen, replicate 1 = reduced axon outgrowth.

With knock-down of gukh (GeneID 53563) [DRSC15806] the results were phenotype seen, replicate 1 = fewer cells. Against Sse (GeneID 38640) [DRSC09746], the values are phenotype seen, replicate 1 = abnormal cell clusters. With knock-down of CG13059 (GeneID 39803) [DRSC09942], the record shows phenotype seen, replicate 1 = too many neurite branches. Against bigmax (GeneID 43293) [DRSC15481], the values are phenotype seen, replicate 1 = axon bundles split apart. Vha14-2 (GeneID 40748) [DRSC12145] gave phenotype seen, replicate 1 = too many neurite branches. eIF4E7 (GeneID 31059) [DRSC17782] showed phenotype seen, replicate 1 = sheet-like cell extensions.

For Sin3A (GeneID 36382) [DRSC07552], the values are phenotype seen, replicate 1 = weaker green signal. Against Snx3 (GeneID 41551) [DRSC16027] the deposit lists phenotype seen, replicate 1 = abnormal cell clusters.

In a second layout: results already given
Gdap2 (GeneID 59173) [DRSC06789]
- phenotype seen, replicate 1: axon bundles split apart

Gdap2 (GeneID 59173) [DRSC06790]
- phenotype seen, replicate 1: axon bundles split apart

Additional entries follow:
Silencing of CG7945 + yellow-k [DRSC10851] resulted in: phenotype seen, replicate 1 = axon bundles split apart. With knock-down of peg (GeneID 50050) [DRSC15216], the record shows phenotype seen, replicate 1 = too many neurite branches. Depletion of RpL31 (GeneID 35988) [DRSC06716] resulted in: phenotype seen, replicate 1 = weaker green signal. Knock-down of Sam-S (GeneID 48552) [DRSC00758] came out at: phenotype seen, replicate 1 = reduced axon outgrowth. Against beat-IV (GeneID 42778) [DRSC14195], the entry reads phenotype seen, replicate 1 = cell fragments present. Syx4 (GeneID 31269) [DRSC18586] gave phenotype seen, replicate 1 = too many neurite branches.

Depletion of CG13717 (retired record) (GeneID 38566) [DRSC21337] came out at: phenotype seen, replicate 1 = too many neurite branches. With knock-down of BaraB (GeneID 35894) [DRSC06420], the record shows phenotype seen, replicate 1 = reduced axon outgrowth. CG12914 (GeneID 36078) [DRSC06229] gave phenotype seen, replicate 1 = too many neurite branches. With knock-down of CG3071 (GeneID 31213) [DRSC18526], the screen gave phenotype seen, replicate 1 = axon bundles split apart. CG14478 (GeneID 36964) [DRSC06450] gave phenotype seen, replicate 1 = sheet-like cell extensions. Silencing of Rpt4R (GeneID 39351) [DRSC10791] resulted in: phenotype seen, replicate 1 = too many neurite branches.

Against CG31140 (GeneID 42836) [DRSC15904], the entry reads phenotype seen, replicate 1 = too many neurite branches. CG14221 (GeneID 32961) [DRSC19578] scored phenotype seen, replicate 1 = reduced axon outgrowth. After knock-down of CG7156 (GeneID 42187) [DRSC16207], the screen gave phenotype seen, replicate 1 = axon bundles split apart. Knock-down of His2B:CG33870 + His2B:CG33868 + His2B:CG33882 + 21 more [DRSC03757] gave: phenotype seen, replicate 1 = fewer cells. Ptp99A (GeneID 43469) [DRSC14319] showed phenotype seen, replicate 1 = sheet-like cell extensions. Against Ptp99A (GeneID 43469) [DRSC14320] the deposit lists phenotype seen, replicate 1 = too many neurite branches.

For Ir10a (GeneID 32067) [DRSC18891], the entry reads phenotype seen, replicate 1 = abnormal cell clusters. With knock-down of CkIIalpha-i1 (GeneID 39721) [DRSC11115], the record shows phenotype seen, replicate 1 = abnormal cell clusters. Syb (GeneID 36080) [DRSC07559] scored phenotype seen, replicate 1 = axon bundles split apart.
